Results reported in publication PMC7862700.
This is a selection; strong and weak results do not stand in their true shares. At the low end of the ranking the order means little.

Target: SPI1 (UniProt P17947)
Assay: DAPPL (digital affinity profiling via proximity ligation, sequencing)
Settings: 10 mM Tris-HCl pH 7.5, 50 mM NaCl, 1 mM DTT, 4% glycerol, room temperature, 30 min; GST-TFs on glutathione beads, 16-mer random dsDNA library, 0.1% …; high values mean tight binding; double strand, one strand shown; scale: fold enrichment (6-mer frequency, TF over GST control)

| Sequence | binding signal |
| --- | --- |
| CCATGC | 1.01 |
| TCTTAA | 1.23 |
| TGCGTA | 1.17 |
| GGGCTA | 0.974 |
| TCTTGC | 1.28 |
| CTTCCT | 5.09 |
| AATAAC | 1.18 |
| CACTCT | 1.34 |
| CTTAGA | 1.11 |
| AAATAT | 1.32 |
| ATACCA | 0.953 |
| CCGTAA | 1.13 |
| GCCAAT | 1.01 |
| ACCCCG | 1.14 |
| ACTTAA | 1.24 |
| ACTCTC | 1.49 |
| ATCTAA | 1.13 |
| TCGCGC | 0.993 |

Exported bar-delimited: entries from further up
Sequence | binding signal
TCTTAA | 1.23
TGCGTA | 1.17
GGGCTA | 0.974

(cont.)

| Sequence | binding signal |
| --- | --- |
| CGGCTA | 1.16 |
| TTCAAG | 1.2 |
| ACCGAT | 1.1 |
| GTCCCT | 1.38 |
| TTAGTT | 1.27 |
| TACCGA | 1.12 |
| CGACGT | 1.08 |
| CGCTCC | 1.29 |
| CGTTCG | 1.1 |
| GAACCA | 0.982 |
| GATGAC | 1.58 |
| CCCAAT | 1.28 |
| CGTTAA | 1.1 |
| CCGCGT | 1.12 |
| TAAAAT | 1.25 |
| CCGCCC | 1.17 |
| AAAGAC | 1.1 |
| GGTCCC | 1.1 |
